The values that follow come from PubChem BioAssay.

The other results are listed elsewhere or left out.

Holding throughout (test): small molecules altering RGS protein interactions with GNAO1 – biochemical, multiplexed beads, flow cytometry, RGS4/7/8/16/19, primary screen (AID 1504);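 note: fluorescently labeled Galpha-o bound to GDP with aluminium fluoride binding biotinylated RGS beads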
(A flow cytometer gives signals particle by particle.)

In experiment [1] the target is Regulator of G-protein signaling 16 (Homo sapiens) (UniProt O15492). As to conditions: multiplexed bead flow cytometry, measured here: RGS16 interaction, at 10 µM.
Experiment [2] concerns the target Regulator of G-protein signaling 19 (Homo sapiens) (UniProt P49795). As to conditions: multiplexed bead flow cytometry, measured here: RGS19 interaction, at 10 µM.
The target of experiment [3] is Regulator of G-protein signaling 7 (Homo sapiens) (UniProt P49802). As to conditions: multiplexed bead flow cytometry, measured here: RGS7 interaction, at 10 µM.
Experiment [4] concerns the target Regulator of G-protein signaling 8 (Homo sapiens) (UniProt P57771). As to conditions: multiplexed bead flow cytometry, measured here: RGS8 interaction, at 10 µM.

In experiment [1], `O=C(NCC1(N2CCOCC2)CCCCC1)c1cc2ccccc2o1` showed an RGS16–Galpha-o binding response of 328%. For the same molecule, the RGS19–Galpha-o binding response in experiment [2] came out at 103%. The molecule also had an RGS7–Galpha-o binding response in experiment [3] of 177%. This molecule came in with an RGS8–Galpha-o binding response in experiment [4] of 137%.
